Experimental data taken from PubChem BioAssay AID588590 (National Center for Advancing Translational Sciences (NCATS), 2011).
Out of some 390,000 compounds screened, about 4,000 (1%) were called active. Inconclusive results, whose numbers are uncertain, are shown with a selection of clear calls. The call rests on the fitted dose curve; in most records, active means well fitted inhibition curve with a large enough effect; inconclusive means small, poorly fitted or top-dose-only effect, or another doubt; inactive means no such curve, though single readings can be large or run the other way. Potencies of inconclusive entries are doubtful fits and often do not repeat.

By UniProt entry, the sequences of proteins in these tests, tags left out. Where a name states a change or a piece, a line headed by the entry shows the natural chain unless it says otherwise.
UniProt Q9UNA4: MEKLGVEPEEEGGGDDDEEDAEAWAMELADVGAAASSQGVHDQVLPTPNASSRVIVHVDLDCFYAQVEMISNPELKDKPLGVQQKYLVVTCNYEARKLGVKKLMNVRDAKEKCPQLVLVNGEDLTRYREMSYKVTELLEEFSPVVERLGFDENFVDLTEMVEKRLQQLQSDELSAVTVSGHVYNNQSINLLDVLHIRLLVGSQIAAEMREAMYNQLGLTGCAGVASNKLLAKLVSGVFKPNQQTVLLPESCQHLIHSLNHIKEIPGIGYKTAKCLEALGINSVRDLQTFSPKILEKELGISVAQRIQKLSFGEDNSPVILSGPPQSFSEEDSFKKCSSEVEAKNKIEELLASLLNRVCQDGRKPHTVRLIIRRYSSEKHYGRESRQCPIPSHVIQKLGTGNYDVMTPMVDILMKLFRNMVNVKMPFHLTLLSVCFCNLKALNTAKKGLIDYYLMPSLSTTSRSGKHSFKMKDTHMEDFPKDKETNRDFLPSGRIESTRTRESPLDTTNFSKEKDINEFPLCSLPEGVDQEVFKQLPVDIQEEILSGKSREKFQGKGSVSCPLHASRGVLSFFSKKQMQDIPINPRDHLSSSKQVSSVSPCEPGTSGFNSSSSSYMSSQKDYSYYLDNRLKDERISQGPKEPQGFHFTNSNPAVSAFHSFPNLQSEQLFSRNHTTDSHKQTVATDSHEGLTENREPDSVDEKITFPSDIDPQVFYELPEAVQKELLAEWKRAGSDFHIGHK

biological target: DNA polymerase iota (Homo sapiens) (UniProt Q9UNA4); experiment: qHTS for Inhibitors of Polymerase Iota; conditions: Pol iota fluorescent replication assay, 10 min; series mostly up to 115 µM; activity, negative = inhibition: at the top concentration
How it was run: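 Pol iota at 10 nM preincubated 15 min with compounds at room temperature; reaction started with fluorescent substrate, 50 nM final. Fluorescence read kinetically at 0 and 10 min; buffer-only wells as negative control.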
Potency means the concentration at half of the fitted maximal effect.

Potency, active:
C=C(C)C(=O)Nc1cccc(C2=NOC3(C2)C[C@@H](C(N)=O)N(C(=O)/C=C/C=C/C)C3)c1 (some centres not stated) 22.4 µM, Cc1ccc(NC(=O)CN(C)C(=O)Cn2ncc(Cl)c(Cl)c2=O)cc1 44.7 µM, CCN1/C(=C/C=C/c2oc3ccc4ccccc4c3[n+]2CC)Oc2ccc3ccccc3c21 79.4 µM, Cc1ccc(-c2csc(NC(=S)NC(=O)/C=C/c3ccco3)n2)cc1 50.1 µM, CC[C@@H](C)CN1C(=O)N[C@@H](c2ccccc2)C(C(C)=O)=C1C 14.1 µM

Potency, inconclusive:
CC[C@H](C)[C@@H]1NC(=O)c2cc([N+](=O)[O-])cc(F)c2OCC[C@@H](C(N)=O)NC(=O)[C@H](CCCCN)NC1=O 2 µM [inhibitor, full curve, poor fit], O=C(Cc1cnn(-c2ccccc2)c1)c1ccc(O)c(O)c1O 1.26 µM [inhibitor, full curve, poor fit], Cc1c(C2CC(=O)N(c3ccccc3)C2=O)[nH]n(-c2ccccc2)c1=O (configuration not stated) 10 µM [inhibitor, partial curve, poor fit], CC1NC(=O)NC1CCCCC(=O)O (configuration not stated) 3.16 µM [inhibitor, single point], COCCn1c(C)cc(C(=O)COC(=O)c2ccc3ncsc3c2)c1C 31.6 µM [inhibitor, single point], COc1ccc(C(=O)COC(=O)CNC(=O)C2CCCCC2)c(OC)c1 39.8 µM [inhibitor, partial curve, poor fit], COc1cccc(Oc2cc(NN3CCCCC3)c([N+](=O)[O-])cc2[N+](=O)[O-])c1OC 50.1 µM [inhibitor, partial curve, poor fit], O=C(CSc1ncc(S(=O)(=O)c2ccc(Br)cc2)c(=O)[nH]1)Nc1ccc2c(c1)OCCO2 89.1 µM [inhibitor, single point], O=C(Nc1ccc2oc(-c3cccc(F)c3)nc2c1)c1ccc2ccccc2c1 89.1 µM [inhibitor, single point], COCCn1c(-c2ccco2)csc1=Nc1cccnc1 25.1 µM [inhibitor, partial curve, poor fit], COc1cccc(CCc2ccccc2OCC(CN(C)C)OC(=O)CCC(=O)O)c1 (configuration not stated) 89.1 µM [inhibitor, partial curve, poor fit], CC(C)N1C(=O)S/C(=C/c2ccccc2OCc2ccc(C(=O)O)cc2)C1=O 89.1 µM [inhibitor, partial curve, poor fit], Cc1ccc(C(NC(=O)N2CCOCC2)=C(Cl)Cl)cc1F 14.1 µM [inhibitor, partial curve, poor fit], CCOC(=O)c1[nH]c(C)c(/C(O)=C2\C(=O)C(=O)N(CCN3CCOCC3)C2c2cccs2)c1C (configuration not stated) 50.1 µM [inhibitor, partial curve, poor fit], O=C(COc1ccc(F)cc1)N1CCCc2ccccc21 56.2 µM [inhibitor, single point], COc1ccc(-c2cn3ccc(C)cc3n2)cc1 14.1 µM [inhibitor, partial curve, poor fit], COc1cc(OC)cc(C(=O)NNC(=O)CCOc2ccccc2OC)c1 89.1 µM [inhibitor, partial curve, poor fit], O=C(O)c1ccc(Cl)cc1Nc1nc2cc(Cl)ccc2o1 35.5 µM [inhibitor, single point], COc1ccc(NC(=O)c2ccco2)cc1NC(=O)c1c(OC)cccc1OC 89.1 µM [inhibitor, single point], CC(C)(C)[C@H]1C=C(C(=O)N2CCOCC2)O[C@@H](OCc2ccc(CO)cc2)C1 89.1 µM [inhibitor, partial curve, poor fit], CCCCN1C[C@H](O)[C@@H](O)[C@H](O)[C@H]1CO 79.4 µM [inhibitor, single point], CCCC(C)c1nnc(NC(=O)c2cc(C(=O)OC)cc([N+](=O)[O-])c2)s1 (configuration not stated) 22.4 µM [inhibitor, single point], CC(C)c1ccc2occ(CC(=O)N(Cc3ccc(F)cc3)C3CCS(=O)(=O)C3)c2c1 (configuration not stated) 100 µM [inhibitor, partial curve, poor fit], CCN(CC)N=Nc1[nH]nc2nc(C)cc(C)c12 31.6 µM [inhibitor, single point], O=C(CCc1nnc(Cc2ccc3c(c2)OCO3)o1)NCCc1ccccc1Cl 70.8 µM [inhibitor, partial curve, poor fit]

activity, negative = inhibition, inactive:
CC(C)(C)C1CCC(=NNC(=O)C(=O)NCc2cccnc2)CC1 (configuration not stated) 27.4%, NC(=O)c1cc([N+](=O)[O-])ccc1NCCc1ccccc1 28.1%, COc1cccc(NC(=O)Cn2c(=O)n(CCCCC(=O)NCc3ccccc3Cl)c(=O)c3ccccc32)c1 14.4%, COc1ccc(CNC(=O)Cc2c(C)c3cc4c(C)coc4c(C)c3oc2=O)cc1OC -7.4%, COc1cccc(/C=C/C(=O)OCC(=O)NCCNC(=O)COC(=O)/C=C/c2cccc(OC)c2)c1 -15.6%, COc1cccc(NC(=O)Cn2cc(C(=O)c3ccco3)c3ccccc32)c1 11.6%, O=C(O)COc1ccccc1/C=C1\SC(=Nc2ccc(F)cc2)N(c2ccc(F)cc2)C1=O 15%, CC1Cc2cc(S(=O)(=O)CCC(=O)NCc3ccccc3Cl)ccc2N1C(=O)C1CC1 (configuration not stated) 9.85%, CC1(C)Cc2nc3sc4c(=O)n(CC(=O)NCc5ccccc5)cnc4c3cc2CO1 23.8%, COc1cccc(/C=N/NC(=O)c2ccc3nc[nH]c3c2)c1 -23.4%, O=C(Nc1ccccc1)N(Cc1cccc(Cl)c1)c1ccccn1 13.9%, Cn1c(CSCc2ccccc2)nnc1SCC(=O)Nc1ccc(C(=O)O)cc1 2.62%
